This is an account of results in patent US7585834B2 (The Board of Trustees of the Leland Stanford Junior …, priority 2001, dated 2009).

The data set can be described thus: general procedure: Fmoc solid-phase peptide synthesis; HATU. To be noted: conjugation step, TFA salt.

Take “Biotin-aminocaproic acid-r5-Cys(acyclovir)-CONH2”: the conjugation yield is on record as 36%.
